Data as given in PubChem BioAssay AID504786 (Drosophila RNAi Screening Center, 2011).
Aim: 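Knock-downs reducing HIF reporter induction by the iron chelator DFO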 (primary screen). Cell system: Drosophila S2 cells with a stable HIF luciferase reporter. Reagents: long dsRNA against Drosophila genes, about 0.2 µg dsRNA per well of a 384-well plate. Time to read-out: three days of knock-down, then 20 h of DFO before reading. Treatment: desferrioxamine (DFO) at 100 µM, an iron chelator that mimics hypoxia, for 20 h. Detection: 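Firefly luciferase driven by the mouse ldh-a hypoxia-response element, measured after 20 h of 100 µM DFO; z-scores per plate, higher means more signal lost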. Reading the numbers: z-score: higher = stronger loss of HIF reporter signal.
In all, the deposit lists about 21,000 reagents; this is a random part of those with a known target gene and a result. 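Primary screen; positive scores mean lost reporter signal, so the sign may be inverted from the usual convention.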 Reagent sequences are not shown.

speck [DRSC04608] scored z-score, replicate 1 = -0.3; z-score, replicate 2 = -0.4.
Knock-down of CG9269 [DRSC16465] came out at: z-score, replicate 1 = -0.4; z-score, replicate 2 = -0.4.
gudu [DRSC02820] scored z-score, replicate 1 = -0.4; z-score, replicate 2 = -0.4.
For polybromo [DRSC14307], the values are z-score, replicate 1 = 0.3; z-score, replicate 2 = 0.5.
After knock-down of shrb (shrub) [DRSC07061], the record shows z-score, replicate 1 = 3.4; z-score, replicate 2 = 2.9.
For CG7702 [DRSC16293], the entry reads z-score, replicate 1 = -0.1; z-score, replicate 2 = -0.2.
OtopLc (Otopetrin-like c) [DRSC18082] gave z-score, replicate 1 = -0.2; z-score, replicate 2 = -0.6.
OtopLc (Otopetrin-like c) [DRSC18083] gave z-score, replicate 1 = 0; z-score, replicate 2 = -0.1.
For OtopLc (Otopetrin-like c) [DRSC18132] the deposit lists z-score, replicate 1 = -0.3; z-score, replicate 2 = -0.6.
NP15.6 [DRSC16756] scored z-score, replicate 1 = 0; z-score, replicate 2 = 0.1.
Knock-down of CG42561 [DRSC05676] gave: z-score, replicate 1 = -0.1; z-score, replicate 2 = -0.2.
With knock-down of CG43322 [DRSC02280], the record shows z-score, replicate 1 = -0.3; z-score, replicate 2 = -0.5.
Depletion of odd (odd skipped) [DRSC00832] gave: z-score, replicate 1 = 0.7; z-score, replicate 2 = 1.4.
After knock-down of CARPB (Carbonic anhydrase-related protein B) [DRSC18437], the record shows z-score, replicate 1 = -0.4; z-score, replicate 2 = -0.4.
With knock-down of CARPB (Carbonic anhydrase-related protein B) [DRSC18438], the screen gave z-score, replicate 1 = -0.3; z-score, replicate 2 = -0.8.
Depletion of Jon99Fii (Jonah 99Fii) [DRSC15430] gave: z-score, replicate 1 = -0.6; z-score, replicate 2 = -0.8.
Against Atg13 (Autophagy-related 13) [DRSC16228], the entry reads z-score, replicate 1 = -0.4; z-score, replicate 2 = 0.6.
With knock-down of Polr1C (RNA polymerase I and III subunit C) [DRSC02719], the screen gave z-score, replicate 1 = 0.6; z-score, replicate 2 = 1.4.
Against Cyp303a1 (Cytochrome P450 303a1) [DRSC03300], the entry reads z-score, replicate 1 = -0.5; z-score, replicate 2 = 0.2.
After knock-down of SdhA (Succinate dehydrogenase, subunit A (flavoprotein)) [DRSC07547] the results were z-score, replicate 1 = -0.2; z-score, replicate 2 = -0.2.
With knock-down of CG18609 [DRSC06775] the results were z-score, replicate 1 = -0.2; z-score, replicate 2 = -0.3.

Ordered by “z-score, replicate 1” (high to low): 4 of the entries above
OtopLc (Otopetrin-like c) [DRSC18083] | z-score, replicate 1: 0; z-score, replicate 2: -0.1
NP15.6 [DRSC16756] | z-score, replicate 1: 0; z-score, replicate 2: 0.1
OtopLc (Otopetrin-like c) [DRSC18082] | z-score, replicate 1: -0.2; z-score, replicate 2: -0.6
OtopLc (Otopetrin-like c) [DRSC18132] | z-score, replicate 1: -0.3; z-score, replicate 2: -0.6

The results go on:
With knock-down of CG42269 [DRSC10670] the results were z-score, replicate 1 = -0.4; z-score, replicate 2 = -0.2.
Against CG42269 [DRSC10672] the deposit lists z-score, replicate 1 = -0.3; z-score, replicate 2 = 0.8.
For CG12241 [DRSC14481], the entry reads z-score, replicate 1 = -0.1; z-score, replicate 2 = -0.3.
e(r) (enhancer of rudimentary) [DRSC18768] gave z-score, replicate 1 = -0.2; z-score, replicate 2 = -0.4.
After knock-down of Aladin [DRSC18121], the screen gave z-score, replicate 1 = -0.4; z-score, replicate 2 = -0.6.
With knock-down of CG11670 [DRSC14342] the results were z-score, replicate 1 = 0; z-score, replicate 2 = -0.6.
PIP4K (Phosphatidylinositol 5-phosphate 4-kinase) [DRSC17213] gave z-score, replicate 1 = -0.4; z-score, replicate 2 = -0.6.
With knock-down of NANS (N-acetylneuraminic acid synthase) [DRSC15743], the screen gave z-score, replicate 1 = -0.3; z-score, replicate 2 = -0.2.
Ccs (Copper chaperone for superoxide dismutase) [DRSC06692] scored z-score, replicate 1 = -0.3; z-score, replicate 2 = -0.8.
With knock-down of CG1773 [DRSC06688], the record shows z-score, replicate 1 = -0.4; z-score, replicate 2 = -0.4.
With knock-down of CG42322 [DRSC15112], the record shows z-score, replicate 1 = -0.2; z-score, replicate 2 = -0.6.
CG42322 [DRSC15113] showed z-score, replicate 1 = -0.4; z-score, replicate 2 = -0.2.
Depletion of CG42322 [DRSC15114] resulted in: z-score, replicate 1 = 0.2; z-score, replicate 2 = -0.8.
Knock-down of Atg18b (Autophagy-related 18b) [DRSC03108] came out at: z-score, replicate 1 = -0.1; z-score, replicate 2 = 0.2.
Cyp6t1 (Cytochrome P450 6t1) [DRSC20564] gave z-score, replicate 1 = -0.6; z-score, replicate 2 = -0.1.
After knock-down of CG14147 [DRSC10149] the results were z-score, replicate 1 = -0.3; z-score, replicate 2 = -0.2.
Knock-down of scny (scrawny) [DRSC10509] gave: z-score, replicate 1 = -0.1; z-score, replicate 2 = 0.4.
scny (scrawny) [DRSC10510] gave z-score, replicate 1 = -0.1; z-score, replicate 2 = -0.8.
After knock-down of Obp19b (Odorant-binding protein 19b) [DRSC20536], the screen gave z-score, replicate 1 = 0.1; z-score, replicate 2 = 0.4.
